Assay results taken from patent US5935932A, “Bradykinin antagonists containing pentafluorophenylalanine” (University Technology Corporation, priority 1998, dated 1999).
At least one structure is not confirmed: it was looked up by name or label, or the drawing left a doubt. Where a SMILES comes first, the peptide text is derived from it. [ ]: non-standard residue; d: D form. The star is where a group is joined. X1 = N=C(N)NCCC[C@H](NC[C@@H](N*)C1CCCC1)C(=O)O; dPhe(F5) = N[C@H](Cc1c(F)c(F)c(F)c(F)c1F)C(=O)O; Gly(cPent) = N[C@H](C(=O)O)C1CCCC1; Hyp = O=C(O)[C@@H]1C[C@@H](O)CN1

How the values were obtained:
[1] = target: T1, bradykinin receptors in Guinea Pig Ileum (Cavia porcellus, UniProt O70526); test: Guinea Pig Ileum functional assay; assay type: cell-based; details: number in parenthesis is pA2
T1 construct: describes the Guinea Pig Ileum assay used to analyze the present compounds; from tissue; host or cells: isolated guinea pig ileum
T1 sequence (O70526 1-372): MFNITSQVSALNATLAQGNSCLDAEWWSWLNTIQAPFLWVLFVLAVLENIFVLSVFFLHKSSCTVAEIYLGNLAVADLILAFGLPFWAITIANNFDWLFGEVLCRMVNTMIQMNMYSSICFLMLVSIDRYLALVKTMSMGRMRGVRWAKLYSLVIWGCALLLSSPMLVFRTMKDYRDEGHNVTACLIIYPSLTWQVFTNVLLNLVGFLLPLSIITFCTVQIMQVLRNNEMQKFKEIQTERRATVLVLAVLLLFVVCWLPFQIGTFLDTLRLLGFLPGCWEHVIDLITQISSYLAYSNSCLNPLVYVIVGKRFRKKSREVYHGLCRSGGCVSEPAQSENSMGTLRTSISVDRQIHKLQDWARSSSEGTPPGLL
Excerpt: 5. Guinea Pig Ileum functional assay
Trautshold, Handbook of Expt. Pharmacol. Vol 25, Springer Verlag pp 53-55 (1970) describes the Guinea Pig Ileum assay used to analyze the present compounds. The Trautshold method was used without changes to the parameters. U.S. Pat. No. 4,693,993, at Column 14, line 10 gives a general description of data analysis for this assay.
In this table, I=inhibitor, and numbers in parenthesis are pA2. Agonist activity are given as percent BK activity.

[2] = target: T2, bradykinin receptors in Rat Uterus (Rattus norvegicus, UniProt P25023); test: Rat Uterus functional assay; assay type: cell-based; details: number in parenthesis is pA2
T2 construct: describes the Rat Uterus assay used to analyze the present compounds; from tissue; host or cells: isolated rat uterus
T2 sequence (P25023 1-396): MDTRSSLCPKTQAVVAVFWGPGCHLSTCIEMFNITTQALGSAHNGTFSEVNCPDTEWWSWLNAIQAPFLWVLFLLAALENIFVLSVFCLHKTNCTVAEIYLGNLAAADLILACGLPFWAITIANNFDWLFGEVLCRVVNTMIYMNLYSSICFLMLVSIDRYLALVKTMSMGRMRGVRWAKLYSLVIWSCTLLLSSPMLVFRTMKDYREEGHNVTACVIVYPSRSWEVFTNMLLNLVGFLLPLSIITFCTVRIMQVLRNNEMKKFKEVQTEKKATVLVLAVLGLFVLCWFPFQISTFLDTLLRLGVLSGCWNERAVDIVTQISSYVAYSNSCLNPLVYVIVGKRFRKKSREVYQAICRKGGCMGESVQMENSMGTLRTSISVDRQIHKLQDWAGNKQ
Excerpt: 4. Rat Uterus functional assay Trautshold, Handbook of Expt. Pharmacol. […] The Trautshold method was used without changes to the parameters. U.S. Pat. No. 4,693,993, at Column 14, line 10 gives a general description of data analysis for this assay. In this table, I=inhibitor, and numbers in parenthesis are pA2. Agonist activity are given as percent BK activity.

SMILES | Ileum, pA2 (I=inhibitor) [1] | Uterus, pA2 (I=inhibitor) [2]
N=C(N)NCCC[C@@H](N)C(=O)N[C@@H](CCCNC(=N)N)C(=O)N1CCC[C@H]1C(=O)N1C[C@H](O)C[C@H]1C(=O)NCC(=O)N[C@H](C(=O)N[C@@H](CO)C(=O)N[C@H](Cc1c(F)c(F)c(F)c(F)c1F)C(=O)N[C@H](CN[C@@H](CCCNC(=N)N)C(=O)O)C1CCCC1)C1CCCC1 [Compound B10186, DArg-Arg-Pro-Hyp-Gly-Cpg-Ser-Df5f-Cpg-R-Arg] (H-[dR]RP[Hyp]G[Gly(cPent)]S[dPhe(F5)]-X1; N-terminus and C-terminus assumed) | 7.4 | 8.1
N=C(N)NCCC[C@@H](N)C(=O)N[C@@H](CCCNC(=N)N)C(=O)N1CCC[C@H]1C(=O)N1C[C@H](O)C[C@H]1C(=O)NCC(=O)N[C@H](C(=O)N[C@@H](CO)C(=O)N[C@H](Cc1c(F)c(F)c(F)c(F)c1F)C(=O)N[C@H](C(=O)N[C@@H](CCCNC(=N)N)C(=O)O)C1CCCC1)C1Cc2ccccc2C1 [Compound B10196, DArg-Arg-Pro-Hyp-Gly-Igl-Ser-Df5f-Cpg-Arg] | 4.9 | 7.9
